Results deposited as PubChem BioAssay AID652259 (Drosophila RNAi Screening Center, 2013).

Screen: 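Genome-wide hunt for genes that control Wingless pathway activity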 (primary screen)
System: Drosophila clone 8 imaginal disc epithelial cells
Knock-down reagent: long dsRNA against Drosophila genes
Treatment: pathway stimulated by co-transfected Wingless expression plasmid
Measurement: 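Dual luciferase reads per well after Wingless plasmid stimulation: reporter firefly light and Renilla control light; activity is firefly divided by Renilla, a ratio not deposited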
Scale: firefly reporter light: higher = more Wg reporter light, before normalisation; Renilla control light: higher = more transfected or surviving cells
Call rule: 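Strong candidates differ from their plate mean by at least two out of four per-plate statistical tests; weak candidates meet just one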
Calls: active = candidate regulator (raises or lowers reporter); inactive = not a candidate
The screen tested about 22,000 reagents; this is an unselected part of those that have a named target and a result. Over the whole deposit, 233 (1.1%) got an active call. 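Light values are raw, unnormalised plate reads; the ratio scores behind the reporter calls were not deposited.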 No sequences are given here. The record does not give: the amount of reagent, the time to read-out, the dose of the treatment.

bi (GeneID 31379) [DRSC18742]: firefly reporter light, replicate 1 = 27417; Renilla control light, replicate 1 = 10704; Call = inactive
Ptpmeg2 (GeneID 31907) [DRSC18277]: firefly reporter light, replicate 1 = 18635; Renilla control light, replicate 1 = 8301; Call = inactive
Ptpmeg2 (GeneID 31907) [DRSC18278]: firefly reporter light, replicate 1 = 15402; Renilla control light, replicate 1 = 6410; Call = inactive
Gs1l (GeneID 33653) [DRSC00754]: firefly reporter light, replicate 1 = 2288; firefly reporter light, replicate 2 = 4875; Renilla control light, replicate 1 = 736; Renilla control light, replicate 2 = 1729; Call = inactive
Ugt36E1 (GeneID 35139) [DRSC02599]: firefly reporter light, replicate 1 = 5768; Renilla control light, replicate 1 = 1497; Call = inactive
Nct (GeneID 42964) [DRSC16172]: firefly reporter light, replicate 1 = 2528; firefly reporter light, replicate 2 = 6763; Renilla control light, replicate 1 = 1062; Renilla control light, replicate 2 = 2244; Call = inactive
CG17108 (GeneID 34471) [DRSC02576]: firefly reporter light, replicate 1 = 3028; firefly reporter light, replicate 2 = 7410; Renilla control light, replicate 1 = 1853; Renilla control light, replicate 2 = 4332; Call = inactive
CG17108 (GeneID 34471) [DRSC22214]: firefly reporter light, replicate 1 = 5.20e5; firefly reporter light, replicate 2 = 5.41e5; Renilla control light, replicate 1 = 2.13e5; Renilla control light, replicate 2 = 2.33e5; Call = inactive
Grx3 (GeneID 34745) [DRSC02966]: firefly reporter light, replicate 1 = 11085; Renilla control light, replicate 1 = 3477; Call = inactive
Gyf (GeneID 43842) [DRSC17202]: firefly reporter light, replicate 1 = 1984; firefly reporter light, replicate 2 = 5688; Renilla control light, replicate 1 = 859; Renilla control light, replicate 2 = 2096; Call = inactive
CG3552 (GeneID 39097) [DRSC10370]: firefly reporter light, replicate 1 = 7322; Renilla control light, replicate 1 = 2915; Call = inactive
CG17751 (GeneID 42336) [DRSC15261]: firefly reporter light, replicate 1 = 20496; Renilla control light, replicate 1 = 5501; Call = inactive
CG17751 (GeneID 42336) [DRSC22837]: firefly reporter light, replicate 1 = 4.81e5; firefly reporter light, replicate 2 = 5.65e5; Renilla control light, replicate 1 = 2.31e5; Renilla control light, replicate 2 = 2.89e5; Call = inactive

Continued (2 carried over from the part before).
CG17751 (GeneID 42336) [DRSC15261]: firefly reporter light, replicate 1 = 20496; Renilla control light, replicate 1 = 5501; Call = inactive
CG17751 (GeneID 42336) [DRSC22837]: firefly reporter light, replicate 1 = 4.81e5; firefly reporter light, replicate 2 = 5.65e5; Renilla control light, replicate 1 = 2.31e5; Renilla control light, replicate 2 = 2.89e5; Call = inactive
CG12206 (GeneID 31316) [DRSC17828]: firefly reporter light, replicate 1 = 24860; Renilla control light, replicate 1 = 14704; Call = inactive
lectin-30A (GeneID 53541) [DRSC02560]: firefly reporter light, replicate 1 = 1895; firefly reporter light, replicate 2 = 4253; Renilla control light, replicate 1 = 729; Renilla control light, replicate 2 = 2519; Call = inactive
Cap-G (GeneID 36440) [DRSC06652]: reporter change call, replicate 1 = Wg reporter activity raised; firefly reporter light, replicate 1 = 9194; Renilla control light, replicate 1 = 2248; Call = inactive
Cap-G (GeneID 36440) [DRSC06653]: firefly reporter light, replicate 1 = 4471; Renilla control light, replicate 1 = 1557; Call = inactive
Cap-G (GeneID 36440) [DRSC21805]: firefly reporter light, replicate 1 = 5.29e5; firefly reporter light, replicate 2 = 4.60e5; Renilla control light, replicate 1 = 2.37e5; Renilla control light, replicate 2 = 1.34e5; Call = inactive
Uch (GeneID 33397) [DRSC00797]: firefly reporter light, replicate 1 = 11176; Renilla control light, replicate 1 = 2522; Call = inactive
Cad96Cb (GeneID 43033) [DRSC14243]: firefly reporter light, replicate 1 = 13701; Renilla control light, replicate 1 = 10482; Call = inactive
Cad96Cb (GeneID 43033) [DRSC14665]: firefly reporter light, replicate 1 = 21808; Renilla control light, replicate 1 = 13564; Call = inactive
CG15254 (GeneID 34915) [DRSC01870]: firefly reporter light, replicate 1 = 3253; firefly reporter light, replicate 2 = 10721; Renilla control light, replicate 1 = 1602; Renilla control light, replicate 2 = 5185; Call = inactive
CG15254 (GeneID 34915) [DRSC21765]: firefly reporter light, replicate 1 = 3.13e5; firefly reporter light, replicate 2 = 3.90e5; Renilla control light, replicate 1 = 1.69e5; Renilla control light, replicate 2 = 1.69e5; Call = inactive
CheA46a (GeneID 3772338) [DRSC05184]: firefly reporter light, replicate 1 = 15277; Renilla control light, replicate 1 = 6612; Call = inactive
CG12499 (GeneID 42637) [DRSC14521]: firefly reporter light, replicate 1 = 39516; Renilla control light, replicate 1 = 8489; Call = inactive
